Screen size: about 360,000 compounds; about 7,500 (2.1%) were called active. Inconclusive results, whose numbers are uncertain, are shown with a selection of clear calls. The call rests on the fitted dose curve; in most records, active means well fitted inhibition curve with a large enough effect; inconclusive means small, poorly fitted or top-dose-only effect, or effect the other way; inactive means flat fitted curve, though single readings scatter. Where the call is inconclusive, the potency comes from a doubtful curve fit.
assay: Nrf2 qHTS screen for inhibitors; settings: A549 ARE-Fluc reporter, luciferase luminescence, 18-24 h; activity change, negative = inhibition: at 46 µM (top of the series); further: nearly all actives have a fitted effect of over 60% in size
How it was run: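 Reporter: ARE-Fluc in A549. Exposure: 18-24 h, 37 °C, 5% CO2, 5% FBS OPTI-MEM. Readouts: fluorescent cytotoxicity (CellTiter-Fluor), then luminescent Nrf2 signal after BugLite.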
On the % scale 0 is the no-effect control and ±100 the full control effect; potency means the concentration at half of the fitted maximal effect.

Compound	Potency	activity change, negative = inhibition
CCC(Oc1ccc(F)cc1)C(=O)Nc1cc(-c2ccc(C)cc2)no1 (stereo not drawn)	inactive	
Cc1ccc(S(=O)(=O)NCc2ccc(C(=O)NCCCN3CCN(C)CC3)cc2)cc1	inconclusive: 13 µM [falling, partial curve, poor fit]	
COc1cccc(-c2nc(N)nc(SC)c2C#N)c1	inactive	
Cc1cccc(Nc2ccccc2C(=O)OCC(=O)N2CCOCC2)c1C	inconclusive: 6.51 µM [falling, partial curve, poor fit]	
Cc1cc(C)n2nc(-c3ccccc3)cc2n1	inconclusive: 4.61 µM [activator, partial curve]	
Cc1ccc2c(c1)C(c1ccc(F)cc1)N(C(=O)C(C)C)CC(=O)N2 (stereo not drawn)		inactive: 3.07% [at 9.27 µM]
CN1c2ccsc2C(O)=C(C(=S)Nc2ccc(F)c(Cl)c2)S1(=O)=O	inconclusive: 29.1 µM [falling, single point]	
COCc1cc(=O)[nH]c(Nc2nc3ccc(C)cc3o2)n1	inconclusive: 18.4 µM [falling, single point]	
CCc1cccc(NC(=O)Cn2nc(CC)n3c(cc4cc(C)ccc43)c2=O)c1	inconclusive: 29.1 µM [activator, single point]	
O=C(CSc1nnc(-c2cccnc2)n1Cc1ccco1)c1ccccc1	inconclusive: 7.31 µM [activator, partial curve, poor fit]	
COc1cccc(Cn2c(NCC(C)C)nc3c2c(=O)n(C)c(=O)n3C)c1	inconclusive: 29.1 µM [falling, partial curve, poor fit]	
Cc1cccc(C=NOCCc2ccccc2)n1	inconclusive: 20.6 µM [activator, single point]	
O=S(=O)(Nc1cccc(-c2ccc(N3CCOCC3)nn2)c1)c1ccc(Cl)c(Cl)c1	inconclusive: 1.84 µM [falling, partial curve, poor fit]	
CN(C)/N=C/c1ccc(Sc2ccc([N+](=O)[O-])cc2[N+](=O)[O-])o1	inactive	
COc1ccc2c(C)c(CC(=O)NCCc3ccccc3)c(=O)oc2c1OC	inactive	
Clc1ccc(-c2nc(-c3ccncc3)no2)c(Cl)c1	inconclusive: 2.59 µM [activator, partial curve, poor fit]	
CC(/C=C/c1ccc(OCc2ccccc2)cc1)=N\O	inconclusive: 5.17 µM [activator, partial curve, poor fit]	
Cc1ccc(Nc2c(-c3ccc(C)o3)nc3ccccn23)cc1	inactive	
COCCn1c(C)cc(C(=O)COC(=O)/C=C/c2c(C)nn(C3CCS(=O)(=O)C3)c2Cl)c1C (stereo not drawn)	inconclusive: 18.4 µM [falling, single point]	
CCN1CCN(S(=O)(=O)c2ccc(Oc3ccccc3OC)cc2)CC1	inconclusive: 13 µM [falling, partial curve, poor fit]	
COc1cccc(NC(=O)CSc2nc3c(sc4ccccc43)c(=O)n2CCN(C)C)c1	inconclusive: 29.1 µM [falling, single point]	
CCc1c(N)nc(N)nc1Nc1ccccc1Cl	inconclusive: 9.2 µM [falling, partial curve, poor fit]	
CCCCCCCOC(=O)C[N+](C)(C)CCOC1CC2CCC1(C)C2(C)C (stereo not drawn)	inactive	

Part of the list above in a different format.
Compound | Potency | activity change, negative = inhibition
Cc1cccc(Nc2ccccc2C(=O)OCC(=O)N2CCOCC2)c1C | inconclusive: 6.51 µM [falling, partial curve, poor fit] | 
Cc1cc(C)n2nc(-c3ccccc3)cc2n1 | inconclusive: 4.61 µM [activator, partial curve] | 
Cc1ccc2c(c1)C(c1ccc(F)cc1)N(C(=O)C(C)C)CC(=O)N2 (stereo not drawn) |  | inactive: 3.07% [at 9.27 µM]
CN1c2ccsc2C(O)=C(C(=S)Nc2ccc(F)c(Cl)c2)S1(=O)=O | inconclusive: 29.1 µM [falling, single point] | 
CCc1cccc(NC(=O)Cn2nc(CC)n3c(cc4cc(C)ccc43)c2=O)c1 | inconclusive: 29.1 µM [activator, single point] | 
COc1cccc(Cn2c(NCC(C)C)nc3c2c(=O)n(C)c(=O)n3C)c1 | inconclusive: 29.1 µM [falling, partial curve, poor fit] | 
Cc1cccc(C=NOCCc2ccccc2)n1 | inconclusive: 20.6 µM [activator, single point] | 
O=S(=O)(Nc1cccc(-c2ccc(N3CCOCC3)nn2)c1)c1ccc(Cl)c(Cl)c1 | inconclusive: 1.84 µM [falling, partial curve, poor fit] | 
CN(C)/N=C/c1ccc(Sc2ccc([N+](=O)[O-])cc2[N+](=O)[O-])o1 | inactive | 
COc1ccc2c(C)c(CC(=O)NCCc3ccccc3)c(=O)oc2c1OC | inactive | 
Clc1ccc(-c2nc(-c3ccncc3)no2)c(Cl)c1 | inconclusive: 2.59 µM [activator, partial curve, poor fit] | 
Cc1ccc(Nc2c(-c3ccc(C)o3)nc3ccccn23)cc1 | inactive | 
COCCn1c(C)cc(C(=O)COC(=O)/C=C/c2c(C)nn(C3CCS(=O)(=O)C3)c2Cl)c1C (stereo not drawn) | inconclusive: 18.4 µM [falling, single point] | 
COc1cccc(NC(=O)CSc2nc3c(sc4ccccc43)c(=O)n2CCN(C)C)c1 | inconclusive: 29.1 µM [falling, single point] | 
CCCCCCCOC(=O)C[N+](C)(C)CCOC1CC2CCC1(C)C2(C)C (stereo not drawn) | inactive | 

Later entries:

Compound	Potency	activity change, negative = inhibition
CCOc1ccc2c(c1)s/c(=N\S(=O)(=O)c1ccc(OC)cc1)n2C(F)F	inconclusive: 29.1 µM [falling, single point]	
COc1cccc(C(=O)C2=NN(C(C)=O)CC2c2ccco2)c1 (stereo not drawn)	inconclusive: 20.6 µM [falling, single point]	
Cc1ccc(C(=O)NCC(=O)OCc2cc(=O)n3nc(C4CCCCC4)sc3n2)cc1	inactive	
Cc1cccc(NC(=O)Nc2ccc3c(c2)CCC3)c1	inconclusive: 20.6 µM [activator, partial curve, poor fit]	
CCc1ccc(CNC(=O)Cc2ccc(NC(=O)C3=C(C)OCCS3)cc2)cc1	inconclusive: 8.2 µM [activator, partial curve]	
Cc1ccc(N(C(=O)c2snc(C(N)=O)c2N)C(CC(C)C)C(=O)NC2CCCC2)cc1 (stereo not drawn)	inactive	
COc1cc(C(=O)NC2CCN(C)CC2)ccc1Nc1ncc2c(n1)N(CCc1ccccc1)CCC(=O)N2C	inconclusive: 9.2 µM [falling, partial curve, poor fit]	
O=C(O)c1ccc(NC2=Nc3cccc4cccc2c34)cc1	inconclusive: 16.4 µM [falling, single point]	
Cn1c2c(c(=O)n(C)c1=O)C(c1ccccc1Cl)CC(=O)N2 (stereo not drawn)	inconclusive: 16.4 µM [falling, partial curve, poor fit]	
CC(Sc1nnc(-c2ccco2)n1-c1ccccc1)C(=O)NCC1CCCO1 (stereo not drawn)	inactive	
Cc1ccc(/C=C/C(=O)c2c(C)nc3ccccn23)cc1	inconclusive: 0.92 µM [activator, partial curve]	
Cc1noc(NS(=O)(=O)c2ccc(N/C=C\C(=O)c3ccc(Br)cc3)cc2)c1C	inconclusive: 16.4 µM [falling, partial curve, poor fit]	
O=C(NC1CCCCCC1)C(=S)NCCc1ccccc1	inconclusive: 16.4 µM [activator, partial curve]	
CC(C)N1CCc2c(sc(N)c2C#N)C1	inactive	
Cc1noc(C)c1-c1ccc2ncnc(NCc3cc(F)cc(F)c3)c2c1	inconclusive: 20.6 µM [falling, single point]	
COc1ccc2c(c1)c(=O)c(C(=O)c1ccccc1)cn2Cc1ccc(C)cc1	inconclusive: 25.9 µM [falling, single point]	
Cc1cc(C)c(-c2nc3ccccc3s2)[nH]1	inconclusive: 9.2 µM [activator, partial curve]	
COc1cc(NC(=O)c2nc3cc(C)c(C)cc3n(C)c2=O)cc(OC)c1OC	inactive	
Cc1ccc(-c2c[n+]3c(n2-c2ccccc2)CCC3)cc1	active: 6.51 µM	
COc1cc(C2Nc3cccc4cccc(c34)N2)cc(OC)c1O	inconclusive: 32.6 µM [falling, single point]	
COc1ccc(N2CCN(S(=O)(=O)c3ccc(-c4cc(C(F)(F)F)on4)s3)CC2)cc1	inconclusive: 0.82 µM [falling, full curve, poor fit]	
CCn1c(SCc2nc3ccccc3nc2C)nnc1-c1cccs1	inactive	
CCc1ccc2[nH]c(=O)c(CN(CCN(C)C)C(=O)Nc3ccccc3)cc2c1	inactive	

Compound	Potency	activity change, negative = inhibition
O=C(Nc1ccccc1N1CCN(C(=O)c2ccc(Cl)cc2)CC1)c1cc2ccccc2o1	inconclusive: 23.1 µM [falling, single point]	
O=C(NCC1COc2ccccc2O1)c1ccc(Cl)cc1 (stereo not drawn)	inconclusive: 1.84 µM [activator, partial curve, poor fit]	
C/C(=N\NC(=O)c1c(Cl)cnn1C)c1cccnc1	inconclusive: 4.61 µM [activator, partial curve, poor fit]	
COc1ccc(C#Cc2c(-c3ccsc3)oc3ccc(-c4cc(OC)c(OC)c(OC)c4)cc23)cc1	inactive	
O=c1cc(-c2ccccc2Cl)oc2cc(O)cc(O)c12	inactive	
Cc1ccc(CNC(=O)C(CC(C)C)N2Cc3ccccc3C2=O)cc1 (stereo not drawn)	inconclusive: 29.1 µM [activator, single point]	
C=C1CCN(C(Cc2ccccc2)C(=O)Nc2ccc(OC)cc2)S(=O)(=O)c2ccccc21 (stereo not drawn)	inactive	
O=C(CCN=C1NS(=O)(=O)c2ccccc21)OCc1nnc(-c2ccc([N+](=O)[O-])cc2)o1	inactive	
Nc1ccc(C#Cc2c(-c3ccsc3)oc3ccc(N4CCOCC4)cc23)cc1	inconclusive: 13 µM [activator, partial curve, poor fit]	
CS(=O)(=O)c1sc(C#N)c2c1C(=O)CC(c1ccccc1)C2 (stereo not drawn)	inconclusive: 20.6 µM [falling, single point]	
Cc1cc(C)cc(NC(=O)C(Cc2ccccc2)N2Cc3ccccc3C2=O)c1 (stereo not drawn)	inactive	
Cc1nn(Cc2ccc(Cl)cc2)c(C)c1NC(=O)c1cc(C(C)C)on1	inactive	
CC(=O)c1ccc(NC(=O)CSc2nnc(C3CC3)n2C2CC2)cc1	inconclusive: 10.3 µM [falling, partial curve, poor fit]	
CCOC(=O)c1c(NC(=S)NCCc2ccccc2)sc2c1CC(C(C)C)OC2 (stereo not drawn)	inconclusive: 23.1 µM [falling, single point]	
CCOc1ccc(C2Nc3ccc4ccccc4c3-c3c2c(=O)oc2ccccc32)cc1 (stereo not drawn)	inconclusive: 1.64 µM [falling, partial curve, poor fit]	
CCN(C(=O)COC(=O)c1cc(-c2ccccc2)nc2c1c(C)nn2-c1ccccc1)C1CCS(=O)(=O)C1 (stereo not drawn)	inconclusive: 13 µM [falling, partial curve, poor fit]	
O=S(=O)(c1ccc(SCc2ccccc2)nc1)N1CCCC1	inconclusive: 29.1 µM [falling, single point]	
Cc1ccc(C(=O)Nc2nc3ccccc3c(=O)s2)cc1	inconclusive: 11.6 µM [activator, partial curve]	
CCCn1c(NC(=O)c2ccc(F)cc2)nc2ccccc21	inconclusive: 18.4 µM [activator, single point]	
O=[N+]([O-])c1ccc(N2CCN(C(=S)NCc3ccc(Cl)cc3)CC2)cc1	active: 16.4 µM	
O=C(CSc1nnnn1-c1ccc2c(c1)OCCO2)OC1CCCCC1	inactive	
O=C(CSc1ncnc2scc(-c3ccc(F)cc3)c12)c1ccc2c(c1)OCCO2	inconclusive: 18.4 µM [falling, single point]	

Source: PubChem BioAssay AID504444 (National Center for Advancing Translational Sciences (NCATS), 2011)
